Results deposited as PubChem BioAssay AID1224830 (NIAID, 2016)

Purpose: 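Genes whose knock-down alters the TNF-alpha reporter response to LPS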 (primary screen)
System: human THP-1 monocytic leukaemia cells, TNF dual-luciferase reporter clone, PMA-differentiated to macrophage-like cells
Reagent: siRNA pool against human genes, 50 nM
Duration: LPS for 4 h, given about 3 days after siRNA transfection
Conditions: bacterial LPS (TLR4 ligand), 10 ng/ml
Detection: 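Ratio of firefly to renilla light, scaled to the plate median and expressed as a robust z-score per replicate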
Reading the numbers: TNF reporter robust z-score: higher = stronger TNF reporter response to LPS
Hit rule: 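Each well counts as active if its z-score is over 2.8 or under -1.5; controls are left without a call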
The whole screen tested about 18,000 reagents; this is a random part of them. About 2,900 of all reagents (16%) were called active. 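Calls are made per well; low scores hint the gene aids the LPS response, high scores that it dampens it.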 Repeated entries: four replicate wells of each siRNA pool.

| gene symbol | TNF reporter robust z-score | Outcome |
| --- | --- | --- |
| FEZF2 | -0.64 | inactive |
| FEZF2 | 0.23 | inactive |
| FEZF2 | -0.36 | inactive |
| FEZF2 | 0.07 | inactive |
| DNAJC2 | -0.55 | inactive |
| DNAJC2 | -0.27 | inactive |
| DNAJC2 | -0.54 | inactive |
| DNAJC2 | 0.92 | inactive |
| SLC35A4 | -0.77 | inactive |
| SLC35A4 | -0.75 | inactive |
| SLC35A4 | -0.41 | inactive |
| SLC35A4 | -1.26 | inactive |
| PRIMA1 | -1.01 | inactive |
| PRIMA1 | -0.75 | inactive |
| PRIMA1 | -0.01 | inactive |
| PRIMA1 | 0.34 | inactive |
| CSDC2 | 1.85 | inactive |
| CSDC2 | 0.76 | inactive |
| CSDC2 | 1.6 | inactive |
| CSDC2 | 0.64 | inactive |

Continued (2 carried over from the part before).
| gene symbol | TNF reporter robust z-score | Outcome |
| --- | --- | --- |
| CSDC2 | 1.6 | inactive |
| CSDC2 | 0.64 | inactive |
| TRMT10C | -0.96 | inactive |
| TRMT10C | -0.71 | inactive |
| TRMT10C | -0.65 | inactive |
| TRMT10C | -0.18 | inactive |
| KRTAP1-5 | -1.2 | inactive |
| KRTAP1-5 | -0.99 | inactive |
| KRTAP1-5 | -0.97 | inactive |
| KRTAP1-5 | -0.94 | inactive |
| CALCB | 1.28 | inactive |
| CALCB | 0.56 | inactive |
| CALCB | 0.18 | inactive |
| CALCB | 0.63 | inactive |
| RAD52 | -0.59 | inactive |
| RAD52 | 0.15 | inactive |
| RAD52 | -0.36 | inactive |
| RAD52 | 0.59 | inactive |
| RNF182 | -1.43 | inactive |
| RNF182 | -0.94 | inactive |
| RNF182 | 0.7 | inactive |
| RNF182 | 0.01 | inactive |
| OR51G1 | 0.71 | inactive |
| OR51G1 | 1 | inactive |
| OR51G1 | 1.09 | inactive |
| OR51G1 | 2.42 | inactive |
| B3GNT4 | 0.1 | inactive |
| B3GNT4 | 0.67 | inactive |
| B3GNT4 | 1.57 | inactive |
| B3GNT4 | 0.62 | inactive |
